Counter-ions that a name gives are not always drawn. Repeats are few or missing, and single values can be far off.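 All cells are established human bladder cancer lines, one derived from a patient-derived xenograft. A luminescent ATP assay measured viability as percent inhibition relative to vehicle across seven dilutions. The paper rates scores above 59 very active, 30–59 active, 21–29 semi-active, 9–20 low active, below 9 inactive.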
How the values were obtained:
Assay in all cases: drug sensitivity score DSS3 (score 0-100); higher = more sensitive; extreme values may be limits of the assay
Details in all cases: culture: 3D, ultra-low attachment; treatment time: 5 days
5637 = system: 5637
SW780 = system: SW780
UM-UC-12 = system: UM-UC-12
T-24 = system: T-24
SCaBER = system: SCaBER
J82 = system: J82
UM-UC-15 = system: UM-UC-15
UM-UC-1 = system: UM-UC-1
BC8149 = system: BC8149
UM-UC-5 = system: UM-UC-5
UM-UC-6 = system: UM-UC-6
TCCSUP = system: TCCSUP
UM-UC-17 = system: UM-UC-17
UM-UC-18 = system: UM-UC-18
UM-UC-9 = system: UM-UC-9
UM-UC-14 = system: UM-UC-14
UM-UC-3 = system: UM-UC-3

| SMILES | drug sensitivity score DSS3 5637 | drug sensitivity score DSS3 (SW780) | drug sensitivity score DSS3 (UM-UC-12) | drug sensitivity score DSS3 (T-24) | drug sensitivity score DSS3 (SCaBER) | drug sensitivity score DSS3 (J82) | drug sensitivity score DSS3 (UM-UC-15) | drug sensitivity score DSS3 (UM-UC-1) | drug sensitivity score DSS3 (BC8149) | drug sensitivity score DSS3 (UM-UC-5) | drug sensitivity score DSS3 (UM-UC-6) | drug sensitivity score DSS3 (TCCSUP) | drug sensitivity score DSS3 (UM-UC-17) | drug sensitivity score DSS3 (UM-UC-18) | drug sensitivity score DSS3 (UM-UC-9) | drug sensitivity score DSS3 (UM-UC-14) | drug sensitivity score DSS3 (UM-UC-3) |
| --- | --- | --- | --- | --- | --- | --- | --- | --- | --- | --- | --- | --- | --- | --- | --- | --- | --- |
| O=S(=O)(CC1CS1)c1ccc(Oc2ccccc2)cc1 (centres undefined) [SB-3CT] (max dose 10000 nM) | 0 | 0 | 0 | 0 | 0 | 0 | 0.128 | 0 | 0.122 | 0 | 0 | 0 | 0 | 0 | 0 | 0 | 0 |
| COc1ccc(CCNCc2ccc(OCc3ccc(Cl)nc3)c(OC)c2)cc1OC [SBE 13 HCl] (max dose 10000 nM) | 0 | 0 | 0.904 | 0 | 0 | 0 | 0 | 0 | 0 | 0 | 0.00499 | 0 | 0 | 0 | 0.16 | 0 | 0 |
| Fc1ccc(Cl)cc1-c1nc(Nc2ccncc2)c2nccnc2n1 [SD-208] (max dose 10000 nM) | 0 | 0 | 0 | 0 | 0 | 0 | 3.3 | 0 | 0 | 0 | 0 | 0 | 0 | 0 | 0.691 | 0 | 0 |
| Cc1cc(C)cc(Oc2ccc(CNC(=O)[C@H](C)N)cc2C)c1 [SGC2085] (max dose 10000 nM) | 0 | 0 | 0 | 0 | 0 | 0 | 0.335 | 0 | 0 | 0 | 0 | 0 | 0 | 0 | 0 | 0 | 0 |
| CN1CCC(CNc2ccc3ncc(-c4cccc(OC(F)(F)F)c4)n3n2)CC1 [SGI-1776 free base] (max dose 10000 nM) | 2.44 | 0 | 0.61 | 0 | 0 | 0 | 0 | 3.03 | 2.26 | 0 | 4.74 | 7.52 | 2.65 | 12 | 0 | 12 | 1.58 |
| CC1(N)CCN(c2cnc(-c3cccc(Cl)c3Cl)c(N)n2)CC1 [SHP099 dihydrochloride] (max dose 10000 nM) | 0 | 0 | 0.338 | 0.379 | 0 | 0 | 0.0124 | 0 | 0 | 0 | 0 | 0 | 0 | 0.374 | 0 | 0 | 0 |
| COc1cc2c(cc1OC)CN(C(=O)/C=C/c1c(-c3ccccc3)n(C)c3ncccc13)CC2 [SIS3 HCl] (max dose 10000 nM) | 0 | 0 | 0 | 0 | 0 | 0 | 0 | 0 | 0 | 0 | 0 | 0 | 0 | 0 | 0 | 0 | 0 |
| Oc1ccc(Nc2nc(-c3ccc(Cl)cc3)cs2)cc1 [SKI II] (max dose 10000 nM) | 0.274 | 0 | 0 | 0 | 0 | 0 | 0 | 0 | 0 | 0 | 0 | 0.204 | 0 | 0 | 0 | 0 | 0 |
| O=C1NC(=O)/C(=C/c2cccc(C(F)(F)F)c2)S1 [SMI-4a] (max dose 10000 nM) | 0.292 | 0 | 0 | 0 | 0.459 | 0 | 0.285 | 0 | 0.516 | 0 | 0.0637 | 0.555 | 0.29 | 0.569 | 0 | 0 | 0 |
| CCc1c2c(nc3ccc(O)cc13)-c1cc3c(c(=O)n1C2)COC(=O)[C@]3(O)CC [SN-38] (max dose 10000 nM) | 76.5 | 10.1 | 73.3 | 29.8 | 39.4 | 57.7 | 9.67 | 74.5 | 81.7 | 28.2 | 56.3 | 80.6 | 44.1 | 81.2 | 0.943 | 50.6 | 63.6 |
| O=C(Nc1cc(C(F)(F)F)ccc1N1CCCCC1)c1ccncc1 [SRPIN340] (max dose 10000 nM) | 0 | 0 | 0 | 0 | 0 | 0 | 0 | 0 | 0 | 0 | 0 | 0 | 0 | 0 | 0 | 0 | 0.0289 |
| O=C(Nc1ccccc1-c1cn2c(CN3CCNCC3)csc2n1)c1cnc2ccccc2n1 [SRT1720] (max dose 10000 nM) | 2.66 | 0.0894 | 1.83 | 1.07 | 23 | 0 | 0 | 9.1 | 19 | 0.456 | 1.44 | 30.5 | 0 | 7.09 | 0.156 | 1.83 | 0 |

Reference: the supplement of paper PMC7646827
